Assay results taken from PMC10381309, “Repurposing Benzimidazoles against Causative Agents of Chromoblastomycosis: Albendazole Has Superior In Vitro Activity Than Mebendazole and Thiabendazole” (Journal of Fungi, 2023).

System: Fonsecaea pedrosoi (CFP 00791)
Assay: NIH Clinical Collection screening for antifungal activity (growth inhibition, OD 530 nm)
Format: cell-based
Details: CFP00791 Fonsecaea pedrosoi isolate, 72–96 h
Description: These substances are part of the NIH Roadmap Molecular Libraries Screening Centers Network screening library, a collection of chemically diverse substances in Phase I-III clinical trials. Each substance was initially diluted to 1 mM in DMSO and stored at −20 °C until use. […] The final DMSO concentration corresponded to 0.5% v/v. The inoculum was prepared according to the protocol for filamentous fungi proposed by the European Committee on Antimicrobial Susceptibility Testing—EUCAST, with minor modifications. […] After growth, conidia were suspended in 3 mL of sterile distilled water with 0.1% Tween 20, vortexed, and the concentration adjusted to the 0.5 McFarland scale. The suspension was then diluted 1:10 in order to obtain a final working inoculum at 2–5 × 10^5 CFU/mL. Next, 100 µL of the inoculum was added to each well and the plates incubated at 35 °C for 72–96 h. Negative and positive controls consisted of culture medium alone and drug-free culture medium with the fungal inoculum previously described, respectively. Plates were read using a microplate reader (Epoch, Biotek, Wenusky, VT, USA) with a 530 nm filter to obtain the optical density. All plates were also visually read to confirm the equipment data. […]

With `Clc1ccc(CO/N=C(\Cn2ccnc2)c2ccc(Cl)cc2Cl)c(Cl)c1` [Oxiconazole (nitrate), Oxiconazole] the inhibition at 10 µM was 91%.
